The target of one assay is MCR-1 (Homo sapiens, UniProt Q01726). Nature of the assay: Melanocortin receptor binding assay, competition with 125I-HP 467, HEK 293 cells expressing hMCR-1. The settings on record: for IC50: read-out: MC-1 IC50, TRG 2408 and TRG 2409 libraries, inhibition of 125I-HP 467 binding.
In another assay the target is MCR-4 (Homo sapiens, UniProt P32245). The experiment in a line: Melanocortin receptor binding assay, competition with 125I-HP 467, HEK 293 cells expressing hMCR-4. The conditions noted are these: for IC50: read-out: MC-4 IC50, TRG 2408 and TRG 2409 libraries, inhibition of 125I-HP 467 binding.

Chains of the proteins cited; added tags and fusions are not shown.
UniProt Q01726, whole entry: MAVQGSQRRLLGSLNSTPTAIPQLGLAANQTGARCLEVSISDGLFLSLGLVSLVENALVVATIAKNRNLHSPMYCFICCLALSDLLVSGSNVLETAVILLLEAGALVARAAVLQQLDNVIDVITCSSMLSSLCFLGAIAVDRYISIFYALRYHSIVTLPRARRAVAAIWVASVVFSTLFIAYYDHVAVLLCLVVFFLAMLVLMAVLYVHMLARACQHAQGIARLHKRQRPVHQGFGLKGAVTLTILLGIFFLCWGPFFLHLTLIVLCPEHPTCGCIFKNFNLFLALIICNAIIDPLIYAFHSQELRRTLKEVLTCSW
UniProt P32245, whole entry: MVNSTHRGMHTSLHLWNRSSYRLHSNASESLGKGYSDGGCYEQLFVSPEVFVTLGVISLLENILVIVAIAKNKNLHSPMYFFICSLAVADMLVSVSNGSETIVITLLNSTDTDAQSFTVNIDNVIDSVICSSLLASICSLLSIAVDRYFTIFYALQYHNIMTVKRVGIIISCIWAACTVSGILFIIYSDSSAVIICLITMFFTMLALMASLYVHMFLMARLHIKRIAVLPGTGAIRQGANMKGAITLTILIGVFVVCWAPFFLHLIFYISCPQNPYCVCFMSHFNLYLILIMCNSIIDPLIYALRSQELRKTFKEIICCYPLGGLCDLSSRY

This note sets out measurements from patent US6608082B1, “Treatment of erectile dysfunction using isoquinoline compound melanocortin receptor ligands” (Lion Bioscience AG, priority 1998, dated 2003).

The IC50 is the concentration needed to halve the response being measured.

Structures were worked out from names or drawings and are uncertain.

On to `CCNc1ccc(C2C(CNCc3ccccc3O)c3ccccc3CN2CCC[C@@H](CN)NC)cc1` (some centres unmarked), for which the concentration for half-maximal inhibition (IC50) at MCR-1 amounted to 0.89 µM; on MCR-4 it was 27.9 µM.

For the compound `CCNc1ccc(C2C(CNCc3ccccc3O)c3ccccc3CN2CCC[C@H](N)CN)cc1` (some centres unmarked), the IC50 on MCR-1 was 0.71 µM; at MCR-4, 38.2 µM.

Turning to `COc1ccc(CCNC(=O)C2c3ccccc3C(=O)N(CCCC[C@H](NC(=O)c3ccccc3)C(N)=O)C2c2ccc(Cl)cc2Cl)cc1` (some centres unmarked), the “MC-1 IC50” value at MCR-1 (TRG 2414 library, inhibition of binding of 125I-HP 467, HEK 293 cells expressing MCR-1) was “no fit”. Further, the “MC-4 IC50” value on MCR-4 (TRG 2414 library, inhibition of binding of 125I-HP 467, HEK 293 cells expressing MCR-4) is on record as “no fit”.

With `NC[C@@H](CCCCN1Cc2ccccc2C(CNCc2ccccc2O)C1c1ccc(Cl)cc1Cl)NCCc1ccccc1` (some centres unmarked), the IC50 on MCR-1 is 4.76 µM; at MCR-4, 11.7 µM.
